Library screening results

The values are deposited in ChEMBL (CHEMBL3988442, “University of Dundee, Small-Polar-MMV Screening Library” (2021)).

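Viability assay of Plasmodium falciparum sporozoites; the read-out is not stated. The concentration is filed as 10 mM, unlikely as a test dose, so the dose is not known. Higher reads as lower viability (inferred: compounds with an IC50 in retests scored well above the rest). Strong results were mostly tested again. Size under these conditions: about 34,000 compounds, about 280 of them at 50% or above in at least one test.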

Results are given as percent effect. How 0% and 100% were set is not recorded. Most values in the screen are low, and negative values occur. The compounds are a random part of those screened. Two or more numbers in one place are separate tests of the same structure; such repeats can differ widely.

SMILES: c1ncn(Cc2ccc(CNCc3ccc4c(c3)OCCO4)cc2)n1
Percent Effect: 9.432

SMILES: Cc1cc(C)nc(C2CCCN2C(=O)c2cnccn2)n1 (stereo not shown)
Percent Effect: -6.841

SMILES: CCc1n[nH]c(C2CN(C(=O)c3ccnc(C4CC4)n3)CCO2)n1 (stereo not shown)
Percent Effect: 0.1329 and 52.76 and 4.27

SMILES: COc1cccc(CN(C)Cc2cc(C#N)ccc2F)c1OC
Percent Effect: -13.85

SMILES: Clc1ccc2cccnc2c1CN1CCCCC1Cn1cncn1 (stereo not shown)
Percent Effect: -10.46

SMILES: COCCN1CC(=O)c2sc(NC(C)C)nc2C1
Percent Effect: 16.68

SMILES: O=C(NC1CCN(C2CC2)CC1)NC1CCOc2ccc(Br)cc21 (stereo not shown)
Percent Effect: -6.243

SMILES: CC(C)c1ncc(CN2C[C@@H](CN3CCCC3)[C@@H](CO)C2)cn1
Percent Effect: -9.112

SMILES: CC(C)OCc1ncn2c1CN(Cc1ccc(F)cc1)CCC2.O=C(O)C(F)(F)F
Percent Effect: -7.771

SMILES: O=S1(=O)CCC(N(Cc2nc3ccccc3o2)Cc2cccs2)C1 (stereo not shown)
Percent Effect: 12.81

SMILES: CC(C)COCC1CN(Cc2ccco2)Cc2ncn(C)c21 (stereo not shown)
Percent Effect: 12.26

SMILES: [H][C@@]12CCCCN(C)[C@]1([H])[C@@H](c1ccccc1)CCN2S(=O)(=O)N1CCCC1
Percent Effect: 6.648

SMILES: COc1ccc(CNC2CCCN(Cc3noc(C)n3)C2)cc1F (stereo not shown)
Percent Effect: -11.12

SMILES: CCOCC1CN(S(=O)(=O)C2CC2)Cc2nn(C)cc21 (stereo not shown)
Percent Effect: -3.833

SMILES: [H][C@]12CC[C@]([H])(CN(C(=O)c3c[nH]c(=O)c(Cl)c3)C1)N(Cc1ccccc1)C2
Percent Effect: 1.216

SMILES: [H][C@@]12C[C@@H](Oc3cccnc3)CN1CCN(C(=O)c1ccncc1)C2
Percent Effect: -14.73

SMILES: Cc1cccc(C(=O)N2CCC(C(=O)c3cc(F)ccc3F)CC2)n1
Percent Effect: 9.898

SMILES: COc1ccc(C)cc1CN1CCCC1c1noc(C2CC2)n1 (stereo not shown)
Percent Effect: 9.44 and 3.56 and 11.91

SMILES: CN(C)Cc1cncc2c1CCN(C1CCOCC1)C2.Cl.Cl.Cl
Percent Effect: 13.34

SMILES: [H][C@]12CC[C@]([H])(CN(C3Cc4ccccc4C3)C1)N(C(=O)c1ccc[nH]1)C2
Percent Effect: -6.69

SMILES: Cc1ccc(O)c(C(=O)N2CCCC(NC(=O)C(C)C)C2)c1 (stereo not shown)
Percent Effect: 5.478

SMILES: CC(C)N(C)Cc1cnc2n1CCN(Cc1ccco1)C2.O=C(O)C(F)(F)F.O=C(O)C(F)(F)F
Percent Effect: -1.88

SMILES: O=C(O)C(F)(F)F.O=C(O)C(F)(F)F.O=C(O)C(F)(F)F.[H][C@@]12CN(Cc3ccc(OC)cc3)C[C@]1([H])OCCN2CCN1CCCC1
Percent Effect: 7.015

SMILES: O=S(=O)(NCC1CCN(c2cnccn2)CC1)c1cccs1
Percent Effect: 3.85

SMILES: CC1(C)CN(C(=O)c2ccc3nncn3c2)CCS1
Percent Effect: -9.793

SMILES: CN(Cc1cc(-c2ccccc2)no1)CC1CCCN1c1cccnn1 (stereo not shown)
Percent Effect: -7.135 and -2.762 and -1.522

SMILES: O=C(O)C(F)(F)F.[H][C@@]12OCCN(c3ncccn3)[C@@]1([H])CC[C@H]2OCC1CC1
Percent Effect: -2.802

SMILES: CN(Cc1ccco1)C1COC2(CCN(Cc3nccs3)CC2)C1.O=C(O)C(F)(F)F.O=C(O)C(F)(F)F (stereo not shown)
Percent Effect: 10.96

SMILES: Cc1cc(C(=O)NC2CCc3nc(C)cn3C2)[nH]n1 (stereo not shown)
Percent Effect: -16.67

SMILES: [H][C@@]12C[C@H](C(=O)N3CCCC3)[C@@]([H])(CN(S(=O)(=O)CC(C)C)C1)O2
Percent Effect: 11.96

SMILES: O=C(c1ccc2[nH]nnc2c1)N1C[C@H](O)[C@]2(CCCO2)C1
Percent Effect: -3.057

SMILES: CCOc1cc(C)nc(N2CCN(C(=O)CC)CC2)n1
Percent Effect: -0.4177

SMILES: Cc1csc(C(=O)N2CCC3(CC(N(C)c4ccncn4)C3)C2)c1 (stereo not shown)
Percent Effect: -9.707

SMILES: CCOc1ccc(Cl)c(C(=O)N2CCN(CC(O)CC)CC2)n1 (stereo not shown)
Percent Effect: 0.8458

SMILES: O=C1COc2c(cccc2C(=O)N2CCCCC2Cn2cccn2)N1 (stereo not shown)
Percent Effect: -1.387

SMILES: [H][C@@]12CN(Cc3cccnc3)CCO[C@]1([H])CN(C(=O)c1c(C)noc1C)C2
Percent Effect: -15.82

SMILES: CC1(C(=O)N2CCN(c3ncccn3)CC2)CNCCO1 (stereo not shown)
Percent Effect: -7.64

SMILES: Nc1nccc(NCc2cc3n(n2)CCCN(C(=O)C2CCC2)C3)n1
Percent Effect: -11.88

SMILES: Cc1cc(NC(=O)C(c2cccc(F)c2)N2CCOCC2)ccn1 (stereo not shown)
Percent Effect: -5.975

SMILES: Cc1nc(N2CCOCC2)nc2c1CN(C(=O)C(C)C)CC2
Percent Effect: 1.444

SMILES: CCN1CCC2(CC1)CC(NC(=O)c1csnn1)c1ccccc1O2.O=C(O)C(F)(F)F (stereo not shown)
Percent Effect: 16.27

SMILES: CCN1CCN(C2CCN(CC(=O)NCC(F)(F)F)CC2)C1=O
Percent Effect: 8.314

SMILES: CCNc1ccnc(NC2CCN(S(C)(=O)=O)CC2)n1
Percent Effect: -0.3552

SMILES: CCc1nc(CN2CCN(C(=O)COCc3ccccc3)CC2)no1
Percent Effect: -15.69

SMILES: CC(=O)Nc1nc(C2CCN(C(C)=O)CC2)cs1
Percent Effect: -4.498

SMILES: COCCn1ccnc1CN1CCc2[nH]cnc2C1c1cnn(C)c1C (stereo not shown)
Percent Effect: -0.4579

SMILES: O=C(O)C(F)(F)F.[H][C@]12CCC[C@@H](CNc3ccccn3)[C@@]1([H])CN(c1ncccn1)C2
Percent Effect: 6.048

SMILES: CC(C)(C)C(=O)N1CC(=O)N(Cc2ccco2)CC(O)C1 (stereo not shown)
Percent Effect: -25.07

SMILES: CSc1cc2c(cc1NC(=O)NCC1CCOC1)OCCO2 (stereo not shown)
Percent Effect: 105.7 and 100.9 and 97.86

SMILES: CS(=O)(=O)NCCNC(=O)C1(c2cccc(Cl)c2)CC1
Percent Effect: -4.255

SMILES: COc1c(C2CCCN2C(=O)c2csc(C(C)C)n2)c(C)nn1C (stereo not shown)
Percent Effect: -4.088

SMILES: COc1cccc(NC(=O)N(CCC(F)(F)F)C[C@H](O)CO)c1
Percent Effect: 6.118

SMILES: O=C1NCCCc2[nH]c(C3CCCN(C(=O)C4CC4)C3)nc21 (stereo not shown)
Percent Effect: -30.62

SMILES: Cc1nc(C)n(CC2CCCN2Cc2cnc(C)s2)n1 (stereo not shown)
Percent Effect: 8.25

SMILES: COC1CCN(C(=O)CCn2cccn2)CC1
Percent Effect: -0.08937

SMILES: CCCn1nccc1-c1nccnc1CC1CCN(C(C)=O)C1 (stereo not shown)
Percent Effect: -8.076

SMILES: CCc1cccc(N2CCC(NC(=O)C3CCC3)CC2)c1
Percent Effect: -4.913

For reference, 3 entries once more:

| SMILES | Percent Effect |
|---|---|
| `CN(C)Cc1cncc2c1CCN(C1CCOCC1)C2.Cl.Cl.Cl` | 13.34 |
| `O=C(O)C(F)(F)F.O=C(O)C(F)(F)F.O=C(O)C(F)(F)F.[H][C@@]12CN(Cc3ccc(OC)cc3)C[C@]1([H])OCCN2CCN1CCCC1` | 7.015 |
| `CCOCC1CN(S(=O)(=O)C2CC2)Cc2nn(C)cc21` (stereo not shown) | -3.833 |